These results are taken from the supplement of paper PMC8256030.

Values joined by “and” are separate entries in the source; they are usually repeats but may differ in a detail not shown here. Equal entries are not always repeated. This is one part of the list. This data set is noisy: repeats of one test often differ as much as different tests do.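 HEK293T cells were given each compound shortly before transfection with a reporter in which red mCherry is followed by the SARS-CoV-2 frameshift element and then GFP in the −1 frame, so GFP appears only after frameshifting.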

The test system of this test is SARS-CoV-2 -1 PRF reporter mCherry-FSE-GFP(-1). Description: percent effect, decrease of GFP/mCherry ratio (-1 PRF reporter) relative to controls; higher = stronger frameshift inhibition. Particulars: 10 µM; 24 h; HEK293T.
As for `CCN1CCC[C@H]1CNC(=O)c1cc(S(N)(=O)=O)ccc1OC` [levosulpiride], the percent effect is 2.56%.

`Nc1ccc(S(=O)(=O)Nc2ccccc2)cc1` [sulfabenz]: the percent effect was -5.33%.

As to `COc1cc(C(=O)OCCCN2CCCN(CCCOC(=O)c3cc(OC)c(OC)c(OC)c3)CC2)cc(OC)c1OC` [dilazep], the percent effect is -4.52%.

Take `NCc1ccccc1CC(=O)N[C@@H]1C(=O)N2C(C(=O)O)=C(CSc3nnnn3CC(=O)O)CS[C@H]12`: the percent effect was -3.76%.

As to `CCN(CC)CCOC1(c2ccc(Cl)cc2)CCCCC1` [clofenciclan], the percent effect came out at 3.3%.

Consider `C=Cc1cc(O)cc2nc(-c3ccc(O)c(F)c3)oc12` [prinaberel], for which the percent effect was -5.36%.

With `C[C@@H]1C[C@H]2[C@@H]3C[C@H](F)C4=CC(=O)C=C[C@]4(C)[C@H]3[C@@H](O)C[C@]2(C)[C@H]1C(=O)CO` [fluocortolone], the percent effect is -3.26%.

For `N[C@@H](Cc1c[nH]c2ccccc12)C(=O)O` [tryptophan], the percent effect is -1.12% and -3.06%.

On to `CCC(CC)[C@H](NC(C)=O)[C@@H]1[C@H](O)[C@@H](C(=O)O)C[C@H]1NC(=N)N` [Peramivir], for which the percent effect was -4.81%.

In the case of `OC(CN1CCC(Cc2ccc(F)cc2)CC1)c1ccc(Cl)cc1` (centres undefined) [eliprodil], the percent effect was -1.53%.

Regarding `COc1ccccc1OCC(O)COC(N)=O` (centres undefined) [methocarbamol], the percent effect was -2.67%.

For `Cc1nnc(NS(=O)(=O)c2ccc(N)cc2)s1` [sulfamethizole], the percent effect is -5.21%.

Turning to `CC(=O)C(=Cc1cc(O)c(O)c([N+](=O)[O-])c1)C(C)=O` [nitecapone], the percent effect is 1.41%.

Regarding `Cc1cc(C(=O)NNCc2ccccc2)no1` [isocarboxazid], the percent effect is -3.17%.
